These are yes or no findings as the source states them, for the method shown. A result given as binding can be weak or reduced; the word gives no strength.
Molecular target: cyno OX40 on cells (CHO-K1-cOX40) (cyno)
Assay: FACS on CHO-K1-cOX40 cells

binding: binds
B1: EM1007-44c (antibody, human IgG1, V domains shown)
VH: QVQLQQSGPELVKPGASVTISCKASGHAFSSSWMNWVKQRPGKGLEWIGRIYPGDEITNYNGKFKDKATLTADKSSSTAYMQLSSLTFEDSAVYFCARDLLMPYWGQGTLVTVSA
VL: DIVMTQTAFSNPVTLGTSASISCRSSKSLLYSNGITYLYWYLQKPGQSPHLLIYQMSNLAPGVPDRFSSSGSGTDFTLRISRVEAEDVGIYYCAQNLELPFTFGSGTKLEIK
